According to US20130336885A1 (Genentech, published 2013):
These are yes or no findings as the source states them, for the method shown. Some entries that bind do so weakly or less than the wild type. For some of these results: Tags and fused reporters may be left off the sequences shown.

T1: gD epitope-tagged cynomolgus monkey LgR5 expressed on stably transfected 293 cells (cynomolgus monkey)
T1 sequence: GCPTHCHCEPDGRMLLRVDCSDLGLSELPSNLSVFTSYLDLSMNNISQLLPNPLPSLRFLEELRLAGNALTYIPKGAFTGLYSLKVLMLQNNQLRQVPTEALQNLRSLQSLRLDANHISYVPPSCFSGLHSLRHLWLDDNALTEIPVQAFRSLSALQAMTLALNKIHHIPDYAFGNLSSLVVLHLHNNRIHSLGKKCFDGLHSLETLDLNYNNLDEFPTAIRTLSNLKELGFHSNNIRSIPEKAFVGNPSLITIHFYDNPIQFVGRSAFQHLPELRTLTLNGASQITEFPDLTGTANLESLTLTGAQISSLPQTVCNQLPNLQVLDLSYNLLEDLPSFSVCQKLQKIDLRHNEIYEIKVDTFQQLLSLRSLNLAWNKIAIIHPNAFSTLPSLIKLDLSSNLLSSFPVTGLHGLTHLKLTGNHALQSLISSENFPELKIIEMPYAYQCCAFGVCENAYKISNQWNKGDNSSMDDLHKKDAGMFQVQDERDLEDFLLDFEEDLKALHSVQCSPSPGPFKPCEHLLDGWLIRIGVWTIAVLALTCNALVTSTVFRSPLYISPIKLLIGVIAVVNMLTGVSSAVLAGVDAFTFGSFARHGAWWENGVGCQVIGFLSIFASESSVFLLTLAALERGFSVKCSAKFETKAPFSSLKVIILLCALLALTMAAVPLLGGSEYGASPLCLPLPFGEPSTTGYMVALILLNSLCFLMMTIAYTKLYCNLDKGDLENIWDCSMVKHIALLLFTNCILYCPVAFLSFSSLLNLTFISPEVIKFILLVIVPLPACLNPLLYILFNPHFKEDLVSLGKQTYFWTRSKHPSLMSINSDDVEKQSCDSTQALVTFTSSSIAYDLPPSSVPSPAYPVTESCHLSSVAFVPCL

T2: LgR5 endogenously expressed on LoVo colon cancer cells and D5124 pancreatic tumor cells (UniProt O75473)
T2 sequence (looked up): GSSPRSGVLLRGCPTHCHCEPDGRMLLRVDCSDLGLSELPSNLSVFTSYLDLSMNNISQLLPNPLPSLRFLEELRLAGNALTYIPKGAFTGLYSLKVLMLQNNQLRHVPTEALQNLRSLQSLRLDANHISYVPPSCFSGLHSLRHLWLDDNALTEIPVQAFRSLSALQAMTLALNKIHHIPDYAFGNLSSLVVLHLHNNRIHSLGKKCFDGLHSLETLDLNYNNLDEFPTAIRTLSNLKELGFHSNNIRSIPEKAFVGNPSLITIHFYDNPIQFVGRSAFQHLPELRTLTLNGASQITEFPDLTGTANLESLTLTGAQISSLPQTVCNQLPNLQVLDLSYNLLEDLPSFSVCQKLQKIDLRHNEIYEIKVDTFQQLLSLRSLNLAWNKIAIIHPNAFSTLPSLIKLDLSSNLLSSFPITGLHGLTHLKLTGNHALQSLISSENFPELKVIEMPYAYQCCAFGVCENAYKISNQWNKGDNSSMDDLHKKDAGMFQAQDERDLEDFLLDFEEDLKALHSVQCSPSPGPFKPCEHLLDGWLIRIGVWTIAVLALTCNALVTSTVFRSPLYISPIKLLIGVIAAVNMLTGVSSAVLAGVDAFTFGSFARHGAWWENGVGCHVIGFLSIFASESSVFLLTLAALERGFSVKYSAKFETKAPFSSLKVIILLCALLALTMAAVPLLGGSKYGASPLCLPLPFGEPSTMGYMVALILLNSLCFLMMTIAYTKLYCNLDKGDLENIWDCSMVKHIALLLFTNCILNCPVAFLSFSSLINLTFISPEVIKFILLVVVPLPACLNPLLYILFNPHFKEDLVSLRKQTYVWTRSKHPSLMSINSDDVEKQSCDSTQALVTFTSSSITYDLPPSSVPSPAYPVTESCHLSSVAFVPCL

T3: Human LgR5 ECD (amino acids 22-555) with an N-terminal FLAG, expressed in CHO cells (human) (UniProt O75473)
T3 sequence (looked up): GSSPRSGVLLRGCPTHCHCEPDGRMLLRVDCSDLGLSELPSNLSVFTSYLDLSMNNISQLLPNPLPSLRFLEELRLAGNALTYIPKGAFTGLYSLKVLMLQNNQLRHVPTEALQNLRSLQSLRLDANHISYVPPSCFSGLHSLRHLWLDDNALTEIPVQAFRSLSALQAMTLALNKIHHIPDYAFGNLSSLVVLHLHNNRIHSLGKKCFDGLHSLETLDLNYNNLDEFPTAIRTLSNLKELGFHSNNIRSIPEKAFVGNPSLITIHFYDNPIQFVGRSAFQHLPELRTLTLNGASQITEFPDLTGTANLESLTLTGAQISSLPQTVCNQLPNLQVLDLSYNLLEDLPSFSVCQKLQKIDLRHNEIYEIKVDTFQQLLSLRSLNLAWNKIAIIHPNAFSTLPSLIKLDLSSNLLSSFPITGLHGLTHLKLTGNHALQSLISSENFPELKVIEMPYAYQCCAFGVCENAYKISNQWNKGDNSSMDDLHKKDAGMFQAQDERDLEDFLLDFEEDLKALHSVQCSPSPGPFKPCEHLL

B1: human antibody YW353 (antibody, human IgG1, kappa, V domains shown)
VH: EVQLVESGGGLVQPGGSLRLSCAASGFTFTSYSISWVRQAPGKGLEWVAEIYPPGGYTDYADSVKGRFTISADTSKNTAYLQMNSLRAEDTAVYYCAKARLFFDYWGQGTLVTVSS
VL: DIQMTQSPSSLSASVGDRVTITCRASQDVSTAVAWYQQKPGKAPKLLIYSASFLYSGVPSRFSGSGSGTDFTLTISSLQPEDFATYYCQQSYTTPPTFGQGTKVEIKR
notes: also called huYW353
B2: YW353 phage-displayed Fab (clone from the human synthetic phage antibody library, before reformatting to IgG) (Fab, V domains shown)
VH: B1 VH
VL: B1 VL
B3: chimeric monoclonal antibody 8E11 (antibody, human IgG1, V domains shown)
VH: QVQLQQSGTELMKPGASVKISCKATGYTFSAYWIEWIKQRPGHGLEWIGEILPGSDSTDYNEKFKVKATFSSDTSSNTVYIQLNSLTYEDSAVYYCARGGHYGSLDYWGQGTTLKVSS
VL: NIVLTQSPASLAVSLGQRATISCRASESVDNYGNSFMHWYQQKPGQPPKLLIYLASNLESGVPARFSGSGSRTDFTLTIDPVEADDAATYYCQQNYEDPFTFGSGTKVEIKR
notes: also called ch8E11; chimeric 8E11
B4: mouse monoclonal antibody 8E11 (antibody, mouse IgG1, V domains shown)
VH: B3 VH
VL: B3 VL
B5: humanized monoclonal antibody 8E11.v2 (antibody, human IgG1, kappa, V domains shown)
VH: EVQLVQSGAEVKKPGASVKVSCKASGYTFSAYWIEWVRQAPGQGLEWIGEILPGSDSTDYNEKFKVRATFTSDTSTSTVYLELSSLRSEDTAVYYCARGGHYGSLDYWGQGTLVTVSS
VL: DIVMTQSPDSLAVSLGERATINCRASESVDNYGNSFMHWYQQKPGQPPKLLIYLASNLESGVPDRFSGSGSGTDFTLTISSLQAEDVAVYYCQQNYEDPFTFGQGTKVEIKR
notes: It was assessed as an IgG; also called hu8E11.v2; hu8E11v2

How the values were obtained:
[1] = biological target: T1, gD epitope-tagged cynomolgus monkey LgR5 expressed on stably transfected 293 cells (cynomolgus monkey); experiment: FACS on 293 cells stably transfected with gD epitope-tagged LgR5, 10 ug/ml antibody, R-Phycoerythrin goat anti-human detection
[2] = biological target: T1, gD epitope-tagged cynomolgus monkey LgR5 expressed on stably transfected 293 cells (cynomolgus monkey); experiment: FACS on stably transfected 293 cells, 10 µg/ml antibody
[3] = biological target: T2, LgR5 endogenously expressed on LoVo colon cancer cells and D5124 pancreatic tumor cells; experiment: FACS on LoVo cells
[4] = biological target: T2, LgR5 endogenously expressed on LoVo colon cancer cells and D5124 pancreatic tumor cells; experiment: FACS on D5124 tumor cells
[5] = biological target: T3, Human LgR5 ECD (amino acids 22-555) with an N-terminal FLAG, expressed in CHO cells (human); experiment: phage ELISA, plate-coated LgR5 ECD

Binder | binding [1] | binding [2] | binding [3] | binding [4] | binding [5]
B1 | binds | binds | binds | binds | 
B2 |  |  |  |  | binds
B3 | binds | binds |  |  | 
B4 |  |  |  | binds | 
B5 | binds | binds |  |  | 
